Data taken from publication doi:10.1101/2025.07.12.664526 (bioRxiv, 2025).
No constants are given. Whether binding was seen depends on the method and setting. In cells and extracts the contact can be indirect. Where a sequence is shown, tags or fusion partners need not be part of it.

Biological target: WalR D53A/T101A fused to SmBIT or LgBIT (split luciferase) (S. aureus ATCC29213) (UniProt Q7A8E1)
Assay: split reporter

B1: WalR D53A/T101A fused to SmBIT or LgBIT (split luciferase) (protein, UniProt Q7A8E1 1-233)
chain: MARKVVVVDDEKPIADILEFNLKKEGYDVYCAYDGNDAVDLIYEEEPDIVLLAIMLPGRDGMEVCREVRKKYEMPIIMLTAKDSEIDKVLGLELGADDYVAKPFSTRELIARVKANLRRHYSQPAQDTGNVTNEITIKDIVIYPDAYSIKKRGEDIELTHREFELFHYLSKHMGQVMTREHLLQTVWGYDYFGDVRTVDVTIRRLREKIEDDPSHPEYIVTRRGVGYFLQQHE
**Q.** Which binding does the source give for B1 here?
**A.** Its binding is “no binding”.
